Experimental data taken from the supplement of paper PMC3334620.
The full ranking holds about 33,000 sequences; the median of “E-score (-0.5 to 0.5)” is about -8e-05, and the highest 2% start at about 0.23. Some of the results follow.

These sequences were tested against T1, Nrg2 (UniProt P38082) (assay: PBM E-score (8-mer binding enrichment) (E-score (-0.5 to 0.5)); higher = stronger / more preferred TF binding). Conditions: protein concentration: 100 nM; construct: GST-full length.
T1 sequence: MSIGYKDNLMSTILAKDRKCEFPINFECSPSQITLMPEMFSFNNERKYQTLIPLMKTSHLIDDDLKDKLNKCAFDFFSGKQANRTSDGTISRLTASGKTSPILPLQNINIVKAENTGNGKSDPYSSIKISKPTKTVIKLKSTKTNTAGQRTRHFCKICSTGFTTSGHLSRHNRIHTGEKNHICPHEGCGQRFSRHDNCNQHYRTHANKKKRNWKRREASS
Protocol: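 Universal 'all 10-mer' protein binding microarrays (Agilent AMADID 015681) probed with GST-tagged S. cerevisiae TFs (full-length or DBD) made by in vitro transcription/translation (PURExpress), about 100-200 nM. Bound TF was detected with fluorescent anti-GST. Each ungapped 8-mer (which stands for itself and its reverse complement) is scored by the PBM enrichment score (E-score), a modified Wilcoxon-Mann-Whitney statistic from -0.5 to +0.5, computed with the Universal PBM Analysis Suite. Scale: above 0.35 generally sequence-specific binding.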

| Sequence | PBM E-score |
| --- | --- |
| AATCCGCA | 0.0889 |
| ATACACGC | -0.0419 |
| ATCGGGTG | 0.18 |
| CTGCCCCA | 0.177 |
| GAAACTAA | 0.0535 |
| GCTATGAA | 0.0927 |
| GTCCAGTA | -0.0597 |
| ATTGTACG | -0.133 |
| AACACAAT | 0.047 |
| CACTACTG | 0.077 |
| GAAGGCCA | -0.231 |
| AATAACAA | 0.11 |
| CCAAGCCA | 0.023 |
| TCGTACAA | 0.0884 |
| AAGAAAAG | -0.0237 |
| GGGGCGTA | 0.0216 |
| CACTACCG | -0.163 |
| CCGGCTGA | 0.00157 |
| ACTTTGTC | 0.18 |
| CCAGCTCA | -0.0387 |
| ATCTTATA | 0.141 |
| ATTGACCG | 0.0282 |
| CCCAGATA | 0.0196 |
| ACAGCCGC | -0.0625 |
| CAACGCGG | -0.00072 |

A different layout for some results above:
ATCTTATA
  PBM E-score: 0.141
ATTGACCG
  PBM E-score: 0.0282
CCCAGATA
  PBM E-score: 0.0196
ACAGCCGC
  PBM E-score: -0.0625

(list continues)

| Sequence | PBM E-score |
| --- | --- |
| ACCATTCA | 0.026 |
| GGTGCGAA | -0.0456 |
| TCGACACA | -0.0859 |
| ATAGAGTA | 0.00415 |
| AAGATAGT | 0.114 |
| GGTTCAAC | 0.0418 |
| GAACACGA | 0.0925 |
| ACAAGCCG | -0.0546 |
| AATGGTGG | -0.11 |
| ACTGTCGG | -0.173 |
| AATGAAAA | 0.22 |
| ATCACGTC | 0.102 |
| AGACTGTA | -0.0422 |
| AGGTTATC | -0.201 |
| CCGTCCAC | 0.0937 |
| TCCTGAAA | -0.0476 |
| GTGGCGCA | -0.0518 |
| CTACGATA | 0.105 |
| CCTATTCC | -0.0058 |
| GCTCTAAA | -0.134 |
| ATAAAAGA | -0.0556 |
| GCGTCGGA | -0.0704 |
| AGATCGGG | -0.15 |
| AATGATTG | 0.072 |
| AGGTTCGA | 0.125 |

In a second layout: entries from further up.
Sequence	PBM E-score
ATCACGTC	0.102
AGACTGTA	-0.0422
AGGTTATC	-0.201
CCGTCCAC	0.0937

Next part:

| Sequence | PBM E-score |
| --- | --- |
| ACAAAGCC | -0.0268 |
| TAAACACA | -0.00404 |
| ATGTCAAC | 0.00895 |
| AGGATCCG | 0.0892 |
| AGTCGGAA | -0.0122 |
| TCCAGCAA | -0.151 |
| GGGTGACA | -0.098 |
| AGCAGAAT | 0.174 |
| CGGTTTAG | -0.052 |
| GCTATGGA | -0.0664 |
| AGGGAACT | 0.109 |
| GACGGACC | 0.183 |
| ATGAATAA | 0.01 |
| CGCGCATC | -0.0673 |
| ACGCAGAT | 0.041 |
| CTCCTTCC | -0.292 |
| ATCTGGGA | -0.204 |
| CAAGGGCG | -0.0774 |
| CAAGATTC | 0.0777 |
| CTGCTTGA | -0.0823 |
| ACGCTTGG | 0.0272 |
| ATATATGC | 0.18 |
| AGATAGAC | 0.0287 |
| GAATCAGA | 0.23 |
| AGCTAACT | -0.0159 |

| Sequence | PBM E-score |
| --- | --- |
| ACAGTATC | 0.0374 |
| AGTCAAGC | -0.111 |
| ACGCGCCA | -0.0963 |
| CGATGGTA | -0.0259 |
| ATTTTTAA | 0.163 |
| CAAAGGAC | -0.169 |
| GCAACACC | 0.109 |
| CCACCCAA | -0.0735 |
| GACGATGC | -0.00484 |
| AATAACGG | 0.18 |
| TCGCGAGA | 0.194 |
| AGCTACGG | -0.0601 |
| GCCGTTAC | -0.0346 |
| ATAAGGAG | -0.00846 |
| CTCCTGTC | -0.17 |
| GGTGGCAC | -0.062 |
| CTCCATCA | -0.00292 |
| AATGGGCA | 0.0653 |
| CAACTATC | 0.0616 |
| GCCACAGA | 0.0462 |
| CGAAACCG | 0.0324 |
| AAAAATGA | 0.0139 |
| CAACAAGG | 0.186 |
| CTGTGCAC | -0.084 |
| AGCAACGA | 0.0639 |

| Sequence | PBM E-score |
| --- | --- |
| ACCCTGAA | 0.319 |
| GTTCGCTA | 0.00588 |
| ATTCATGC | 0.203 |
| GAGCAGGA | 0.0341 |
| GGCAAGAA | 0.0574 |
| GGGGCACA | -0.0349 |
| GATACGCA | 0.0695 |
| GTTCTTTA | 0.157 |
| ACACAGTG | 0.0141 |
| TAAGAACA | 0.26 |
| GATCAACC | 0.0908 |
| ATTGAGGA | -0.0335 |
| AAGGGTGG | -0.127 |
| AGCCACCA | -0.0493 |
| ATATATAG | 0.204 |
| TCTAATAA | 0.0659 |
| ACGTATGC | -0.138 |
| CTGGGATA | -0.0685 |
| AATGATGA | 0.203 |
| TCGTTTAA | 0.0943 |
| AGAATTTA | 0.14 |
| TCGCGACA | 0.184 |
| AAGCATGA | -0.0248 |
| CTTACCGA | -0.0475 |
| CCAGGGGA | -0.0803 |

| Sequence | PBM E-score |
| --- | --- |
| GGCGATAC | -0.0646 |
| TCGCAAAA | 0.107 |
| TCGCTCAA | 0.146 |
| ATATCATC | 0.0451 |
| CTAAACCA | -0.179 |
| AATGTGAA | 0.0193 |
| ACGGATTA | -0.057 |
| TCGTACCA | -0.00666 |
| ACTGCGCT | -0.0217 |
| CCAGTCTC | -0.186 |
| GCCAAGCC | -0.0234 |
| CCACCACG | 0.00854 |
| AACCTCAC | -0.0614 |
| ACTCTGGA | 0.0835 |
| CTGAATTC | 0.0162 |
| CCTAGAAG | -0.123 |
| ATGTTCCA | 0.058 |
| AGGCTTCA | -0.242 |
| ACTGGAGG | 0.15 |
| AGATAGTG | 0.174 |
| GCCGCGCC | -0.0901 |
| GCTACCAA | -0.226 |
| AAAGCCTG | -0.0689 |
| GCGTTGCA | 0.0628 |
| TAGGCCTA | -0.0268 |

| Sequence | PBM E-score |
| --- | --- |
| GCCTCGAA | 0.067 |
| ATAGGGAC | 0.139 |
| CAGACAAC | 0.178 |
| ATGTAACC | -0.127 |
| CCTACTGA | 0.0413 |
| CTCTTTCC | -0.193 |
| ACACGGAG | 0.00325 |
| ACTCGGTG | -0.0271 |
| AAACTTGG | -0.0266 |
| ATAGCCTC | -0.121 |
| TGTCAACA | -0.0446 |
| GGGTTTCA | 0.126 |
| GCCGGATA | 0.0712 |
| CGCGCTAC | 0.117 |
| GGTCCCGA | -0.0971 |
| AGCGCCTA | 0.0167 |
| CAGCTTTA | 0.0598 |
| CGGGTGTC | 0.0306 |
| ACTAGCCA | -0.0762 |
| AAGACTCC | -0.317 |
| AACGTCCC | -0.0185 |
| TAAGCCCA | 0.0533 |
| AAAGGAGC | -0.159 |
| CACGCTAC | -0.0912 |
| GAAGTACA | 0.0185 |

Copied from the list:
Value for CACGCTAC under PBM E-score: -0.0912
Value for CGCGCTAC under PBM E-score: 0.117
Value for AAACTTGG under PBM E-score: -0.0266

Additional results

| Sequence | PBM E-score |
| --- | --- |
| CGATCGCC | 0.00189 |
| CCAGCTAC | -0.157 |
| GAACCTCA | -0.0774 |
| ACTGGTGG | -0.101 |
| GGGTCGGA | -0.107 |
| CTATTACA | 0.088 |
| AAGGGTCC | 0.439 |
| CGAGTGTC | 0.118 |
| GTGGACAA | 0.227 |
| ATCGCGCC | 0.201 |
| GGAGTAAA | 0.215 |
| AACAGCTT | -0.0355 |
| GGTTAGGA | -0.191 |
| CGGAGCGA | 0.129 |
| AACCATAT | 0.0769 |
| CAAGTGGC | 0.0772 |
| TCTCAAAA | 0.083 |
| GCCAAGAA | -0.0233 |
| CGCGCTTC | 0.0274 |
| CGGCTCCC | -0.12 |
| ATTCGGGG | 0.243 |
| CACCTGAC | 0.00731 |
| ATAAGCTG | 0.00477 |
| TAGACATA | 0.0718 |
| AGACTCAT | -0.106 |

| Sequence | PBM E-score |
| --- | --- |
| ACTCAGAG | -0.0817 |
| ATTCGGAA | 0.102 |
| ACGAACCT | 0.0576 |
| CGCACAAA | 0.257 |
| ATCCAGCG | 0.0764 |
| AGGGTACT | 0.255 |
| CTAGTATA | -0.196 |
| GCACCGTA | -0.0818 |
| AGTTCCGG | -0.0325 |
| AACTACAA | 0.195 |
| GCCTTACC | -0.166 |
| TGAGTCCA | 0.116 |
| GAAGCCTC | -0.146 |
| AATGATGT | 0.0851 |
| GGTGCGGA | -1e-05 |
| AGTGCACG | 0.0226 |
| CGCCGCAA | 0.0999 |
| CGATTGCC | -0.0713 |
| CGCTCCTA | -0.0527 |
